This list was built around the results that the source calls inconclusive (neither active nor inactive); the mix of calls is not that of the screen. Potencies beside an inconclusive call are fits to weak or partial responses and may not hold up. Activity calls are given as the source filed them. Calls come from the whole dose curve; as a rule, active = well fitted cell-killing curve with a large enough effect; inconclusive = small, poorly fitted or top-dose-only effect, or effect the other way; inactive = no such curve, though single readings can be large or run the other way.
Each molecule was assayed on JEG-3 (assay: Confirmatory qHTS for gynecologic anti-cancer compounds from libraries of approved drugs and bioactive compounds). Settings: gynecologic cancer cell panel viability, ATPlite luminescence, 48 h; series mostly up to 57.6 µM.
How it was run: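 1,000 cells/well; 16 h pre-incubation 37 C, 5% CO2; pin-transferred cpd in DMSO, 11 conc (1:3), 57.5 uM–0.977 nM; 48 h; ATPlite, 15 min RT; luminescence → IC50.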
Note: nearly all actives have a fitted effect of over 55% in size.
Potency is the fitted concentration of half-maximal effect.

Compound | Potency
CC[C@@]1(O)C(=O)OCc2c1cc1n(c2=O)Cc2cc3cc(O)ccc3nc2-1 | active: 0.217 µM
Cc1ccc(NC(=O)c2ccc(CN3CCN(C)CC3)cc2)cc1Nc1nccc(-c2cccnc2)n1 | inconclusive: 21.7 µM [cytotoxic, partial curve]
Cn1cnc2c(F)c(Nc3ccc(Br)cc3F)c(C(=O)NOCCO)cc21 | inactive
Cc1cc(SCc2sc(-c3ccc(C(F)(F)F)cc3)nc2C)ccc1OCC(=O)O | inconclusive: 27.3 µM [cytotoxic, single point]
COc1ccc2c(c1OC)C(=O)O[C@@H]2[C@H]1c2c(cc3c(c2OC)OCO3)CCN1C | inconclusive: 27.3 µM [cytotoxic, single point]

— PubChem BioAssay AID1345085 (National Center for Advancing Translational Sciences (NCATS), 2018)
